# Test results published in patent US4866084A, “Topsentin compounds effective against viruses and certain tumors” (Harbor Branch Oceanographic Institution, Inc., priority 1988, dated 1989).
# At least one structure is not confirmed: it was looked up by name or label, or the drawing left a doubt.
# System: HSV-1
# Experiment: HSV-1 antiviral activity assay (Table 4)
# Format: cell-based, Herpes simplex type 1 (HSV-1)
# Conditions: Table 4, 2 μg/disk
# Method: a. Herpes simplex type 1 (HSV-1) replicates in the CV-1 cell line. CV-1 is a fibroblast-like cell culture derived from primary African green monkey cells.
# a. Dilute the cells with EMEM to 4×10^5 cells/ml.
# b. See 24-well trays with 0.5 ml per well. Cell concentration is […] cells.
# c. Incubate at 37 C. for 1.5 hours.
# d. The wells can be used over the next several days beginning the day after seeding (preferably 2, 3, or 4).
# a. Remove medium from wells.
# b. Infect well with at least 25 and no more than 80 plaque forming units (PFU) of virus.
# c. Incubate infected cells at 37 C. for 1.5 hrs.
# d. Pour off supernatant at end of incubation period.
# e. Add 0.5 ml of methylcellulose overlay medium (MCO). MCO is a maintenance medium without phenol red made with 1% 4000 centipose methylcellulose. FBS is used at 5% level.
# a. For drug evaluation wet filter paper discs (6 mm dia.) with approx. 0.02 ml of test compound. Allow solvent to evaporate for 20-30 mins. at ambient temperature, then place discs in the well containing CV-1 cells, virus and MCO.
# b. Incubate tissue culture plates for 48 hrs. at 37 C.
# c. After 48 hrs. place 0.5 ml NRMCO on each well. (NRMCO is a maintenance overlay medium without phenol red containing 0.1 mg neutral red dye/ml and 2% 15 Cps. methylcellulose.
# d. Incubate plates at 37 C. and read the following day. […]
# a. Antiviral activity (AVA) is scored from 0 to +++. […]
compound,measurement,value
"O=C(C1=NC(c2c[nH]c3ccccc23)CN1)c1c[nH]c2cc(Br)ccc12 (stereo not shown) [Compound 3, 4,5-dihydro-6""-deoxybromotopsentin]",AVA,-
